From paper PMC12324116
These are yes or no findings as the source states them, for the method shown. Some binding calls cover weakened binding; strength is not graded here.

By UniProt entry, the sequences of proteins in these tests, tags left out.
UniProt A0ACD7PPF0: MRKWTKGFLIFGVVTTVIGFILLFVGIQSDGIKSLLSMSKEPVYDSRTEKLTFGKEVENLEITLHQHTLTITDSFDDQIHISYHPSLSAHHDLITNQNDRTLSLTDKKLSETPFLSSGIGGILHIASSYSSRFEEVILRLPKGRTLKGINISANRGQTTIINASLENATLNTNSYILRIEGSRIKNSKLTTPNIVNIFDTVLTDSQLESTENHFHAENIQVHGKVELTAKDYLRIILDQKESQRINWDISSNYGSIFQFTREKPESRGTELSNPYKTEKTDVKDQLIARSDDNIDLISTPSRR

Columns and labels:
[1] = biological target: PtvA, T25 fusion from pKT25 (Streptococcus pneumoniae); test: two-hybrid; bacterial adenylate cyclase-based two-hybrid (BATCH), T25 and T18 fusions co-expressed in E. coli BTH101; colony colour on MacConkey/maltose plates with 0.5 mM IPTG for 4-8 days and beta-galactosidase activity
[2] = biological target: T25-PtvB (Streptococcus pneumoniae); test: as above

Substance	binding [1]	binding [2]
PtvB with T18 fused to the N-terminal (from UniProt A0ACD7PPF0 1-303)	no binding	–
PtvC with T18 fused to the N-terminal (from UniProt A0ACD7PPC1 1-354)	–	binds
